These are yes or no findings as the source states them, for the method shown. In cells and extracts the contact can be indirect. These calls come from enrichment with a bait or labelling near it, and not all partners need be listed.
T1: CBLL1 (human (endogenous in HUVEC)) (UniProt Q75N03)
T1 sequence: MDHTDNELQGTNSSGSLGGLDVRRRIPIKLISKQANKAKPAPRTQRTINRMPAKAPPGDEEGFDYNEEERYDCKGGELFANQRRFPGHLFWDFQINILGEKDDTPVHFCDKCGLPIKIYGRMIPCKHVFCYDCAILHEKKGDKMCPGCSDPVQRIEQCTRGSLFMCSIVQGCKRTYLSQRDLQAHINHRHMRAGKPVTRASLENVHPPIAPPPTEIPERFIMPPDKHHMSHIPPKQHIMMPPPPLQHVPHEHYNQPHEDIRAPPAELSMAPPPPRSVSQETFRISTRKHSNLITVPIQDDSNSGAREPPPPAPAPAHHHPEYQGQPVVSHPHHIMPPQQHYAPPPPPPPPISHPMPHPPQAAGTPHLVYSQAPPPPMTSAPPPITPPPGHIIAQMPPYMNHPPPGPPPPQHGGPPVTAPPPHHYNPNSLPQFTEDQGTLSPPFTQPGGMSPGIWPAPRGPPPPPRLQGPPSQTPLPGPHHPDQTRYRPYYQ

Chains of the proteins cited; added tags and fusions are not shown.
UniProt Q9NYF8: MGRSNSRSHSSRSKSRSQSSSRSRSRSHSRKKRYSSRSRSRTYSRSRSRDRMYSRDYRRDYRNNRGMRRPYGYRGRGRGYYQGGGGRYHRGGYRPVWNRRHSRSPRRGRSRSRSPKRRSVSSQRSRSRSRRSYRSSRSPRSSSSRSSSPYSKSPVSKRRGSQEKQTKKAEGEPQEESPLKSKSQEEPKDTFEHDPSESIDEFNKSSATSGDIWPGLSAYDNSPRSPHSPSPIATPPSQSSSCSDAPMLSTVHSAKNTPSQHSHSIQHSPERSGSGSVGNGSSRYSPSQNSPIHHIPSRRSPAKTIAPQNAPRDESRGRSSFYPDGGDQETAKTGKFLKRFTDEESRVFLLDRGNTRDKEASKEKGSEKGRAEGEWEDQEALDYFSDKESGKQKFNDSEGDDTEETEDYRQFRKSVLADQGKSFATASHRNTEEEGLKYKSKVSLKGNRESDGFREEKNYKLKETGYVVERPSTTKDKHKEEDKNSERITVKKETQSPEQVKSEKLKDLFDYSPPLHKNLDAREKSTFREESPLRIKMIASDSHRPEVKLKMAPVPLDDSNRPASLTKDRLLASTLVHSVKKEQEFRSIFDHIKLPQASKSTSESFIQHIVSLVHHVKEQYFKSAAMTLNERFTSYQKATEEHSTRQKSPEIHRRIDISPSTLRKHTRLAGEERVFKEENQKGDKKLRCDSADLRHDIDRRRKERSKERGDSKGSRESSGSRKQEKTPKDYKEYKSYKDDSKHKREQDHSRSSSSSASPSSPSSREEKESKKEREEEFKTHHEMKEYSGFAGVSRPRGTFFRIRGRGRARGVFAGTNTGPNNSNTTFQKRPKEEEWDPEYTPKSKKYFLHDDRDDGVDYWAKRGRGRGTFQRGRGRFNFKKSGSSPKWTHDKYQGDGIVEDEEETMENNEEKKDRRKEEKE
UniProt O00571: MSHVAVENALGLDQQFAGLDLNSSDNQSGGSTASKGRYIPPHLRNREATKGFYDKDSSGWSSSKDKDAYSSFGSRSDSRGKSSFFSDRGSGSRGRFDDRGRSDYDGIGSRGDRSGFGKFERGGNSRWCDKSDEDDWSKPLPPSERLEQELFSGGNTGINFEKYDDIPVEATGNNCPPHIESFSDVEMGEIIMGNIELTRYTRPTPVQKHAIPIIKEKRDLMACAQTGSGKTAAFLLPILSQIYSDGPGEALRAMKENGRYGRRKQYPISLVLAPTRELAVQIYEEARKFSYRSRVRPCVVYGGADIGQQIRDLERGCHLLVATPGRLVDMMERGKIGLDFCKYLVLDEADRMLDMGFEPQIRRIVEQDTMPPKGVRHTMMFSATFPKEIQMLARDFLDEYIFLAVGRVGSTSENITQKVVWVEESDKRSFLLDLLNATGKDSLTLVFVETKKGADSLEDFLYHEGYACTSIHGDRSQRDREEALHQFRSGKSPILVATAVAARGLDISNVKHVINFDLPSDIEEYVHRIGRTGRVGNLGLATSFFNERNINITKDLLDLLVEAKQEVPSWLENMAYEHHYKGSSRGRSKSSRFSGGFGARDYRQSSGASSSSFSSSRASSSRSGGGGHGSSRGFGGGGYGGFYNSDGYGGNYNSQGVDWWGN
UniProt P51116: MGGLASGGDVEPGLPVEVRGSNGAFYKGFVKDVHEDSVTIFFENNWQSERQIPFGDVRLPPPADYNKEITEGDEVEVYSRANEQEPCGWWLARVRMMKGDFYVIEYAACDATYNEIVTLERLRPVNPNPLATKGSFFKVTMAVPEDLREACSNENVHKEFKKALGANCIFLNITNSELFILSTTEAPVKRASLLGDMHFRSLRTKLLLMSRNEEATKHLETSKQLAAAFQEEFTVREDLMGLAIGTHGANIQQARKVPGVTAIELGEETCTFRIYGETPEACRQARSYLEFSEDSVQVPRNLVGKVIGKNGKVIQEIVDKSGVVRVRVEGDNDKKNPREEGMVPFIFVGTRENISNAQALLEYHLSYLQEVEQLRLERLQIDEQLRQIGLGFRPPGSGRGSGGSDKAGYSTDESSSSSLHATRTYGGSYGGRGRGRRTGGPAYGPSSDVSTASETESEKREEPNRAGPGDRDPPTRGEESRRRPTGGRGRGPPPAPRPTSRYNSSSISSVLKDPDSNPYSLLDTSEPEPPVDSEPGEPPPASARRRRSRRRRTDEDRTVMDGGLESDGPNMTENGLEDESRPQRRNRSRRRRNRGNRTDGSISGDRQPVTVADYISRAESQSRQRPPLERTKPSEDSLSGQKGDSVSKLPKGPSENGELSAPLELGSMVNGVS
UniProt P51114: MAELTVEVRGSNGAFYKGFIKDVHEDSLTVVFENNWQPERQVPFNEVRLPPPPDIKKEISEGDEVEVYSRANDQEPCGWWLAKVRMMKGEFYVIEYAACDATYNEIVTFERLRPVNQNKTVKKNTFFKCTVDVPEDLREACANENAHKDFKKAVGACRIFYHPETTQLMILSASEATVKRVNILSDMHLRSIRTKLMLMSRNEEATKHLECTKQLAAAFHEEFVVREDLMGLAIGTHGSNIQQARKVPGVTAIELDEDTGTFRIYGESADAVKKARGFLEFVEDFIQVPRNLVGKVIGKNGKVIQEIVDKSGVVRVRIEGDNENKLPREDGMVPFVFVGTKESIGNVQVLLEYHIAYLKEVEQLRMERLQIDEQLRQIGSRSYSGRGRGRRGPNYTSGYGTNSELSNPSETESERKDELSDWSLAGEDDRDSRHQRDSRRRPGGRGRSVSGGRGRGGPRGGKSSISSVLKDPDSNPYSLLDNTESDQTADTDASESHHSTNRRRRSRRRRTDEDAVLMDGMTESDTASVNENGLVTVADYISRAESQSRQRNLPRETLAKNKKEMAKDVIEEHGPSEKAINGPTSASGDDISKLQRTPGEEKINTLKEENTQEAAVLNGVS
UniProt Q86U44: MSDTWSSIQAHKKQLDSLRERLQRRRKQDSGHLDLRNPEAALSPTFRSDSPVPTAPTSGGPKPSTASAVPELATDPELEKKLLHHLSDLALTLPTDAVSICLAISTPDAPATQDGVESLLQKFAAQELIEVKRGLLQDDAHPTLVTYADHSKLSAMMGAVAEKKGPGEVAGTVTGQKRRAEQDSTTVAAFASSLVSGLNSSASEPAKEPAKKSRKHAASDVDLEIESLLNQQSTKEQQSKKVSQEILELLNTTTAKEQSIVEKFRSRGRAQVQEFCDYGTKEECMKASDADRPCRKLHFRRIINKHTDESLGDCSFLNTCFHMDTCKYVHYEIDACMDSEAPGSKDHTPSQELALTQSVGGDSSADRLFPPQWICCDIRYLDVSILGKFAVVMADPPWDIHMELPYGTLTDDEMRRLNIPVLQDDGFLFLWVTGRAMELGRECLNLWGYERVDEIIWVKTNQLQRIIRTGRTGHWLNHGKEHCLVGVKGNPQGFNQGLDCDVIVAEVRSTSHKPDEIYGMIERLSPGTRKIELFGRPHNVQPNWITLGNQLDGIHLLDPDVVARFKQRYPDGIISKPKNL
UniProt Q5T200: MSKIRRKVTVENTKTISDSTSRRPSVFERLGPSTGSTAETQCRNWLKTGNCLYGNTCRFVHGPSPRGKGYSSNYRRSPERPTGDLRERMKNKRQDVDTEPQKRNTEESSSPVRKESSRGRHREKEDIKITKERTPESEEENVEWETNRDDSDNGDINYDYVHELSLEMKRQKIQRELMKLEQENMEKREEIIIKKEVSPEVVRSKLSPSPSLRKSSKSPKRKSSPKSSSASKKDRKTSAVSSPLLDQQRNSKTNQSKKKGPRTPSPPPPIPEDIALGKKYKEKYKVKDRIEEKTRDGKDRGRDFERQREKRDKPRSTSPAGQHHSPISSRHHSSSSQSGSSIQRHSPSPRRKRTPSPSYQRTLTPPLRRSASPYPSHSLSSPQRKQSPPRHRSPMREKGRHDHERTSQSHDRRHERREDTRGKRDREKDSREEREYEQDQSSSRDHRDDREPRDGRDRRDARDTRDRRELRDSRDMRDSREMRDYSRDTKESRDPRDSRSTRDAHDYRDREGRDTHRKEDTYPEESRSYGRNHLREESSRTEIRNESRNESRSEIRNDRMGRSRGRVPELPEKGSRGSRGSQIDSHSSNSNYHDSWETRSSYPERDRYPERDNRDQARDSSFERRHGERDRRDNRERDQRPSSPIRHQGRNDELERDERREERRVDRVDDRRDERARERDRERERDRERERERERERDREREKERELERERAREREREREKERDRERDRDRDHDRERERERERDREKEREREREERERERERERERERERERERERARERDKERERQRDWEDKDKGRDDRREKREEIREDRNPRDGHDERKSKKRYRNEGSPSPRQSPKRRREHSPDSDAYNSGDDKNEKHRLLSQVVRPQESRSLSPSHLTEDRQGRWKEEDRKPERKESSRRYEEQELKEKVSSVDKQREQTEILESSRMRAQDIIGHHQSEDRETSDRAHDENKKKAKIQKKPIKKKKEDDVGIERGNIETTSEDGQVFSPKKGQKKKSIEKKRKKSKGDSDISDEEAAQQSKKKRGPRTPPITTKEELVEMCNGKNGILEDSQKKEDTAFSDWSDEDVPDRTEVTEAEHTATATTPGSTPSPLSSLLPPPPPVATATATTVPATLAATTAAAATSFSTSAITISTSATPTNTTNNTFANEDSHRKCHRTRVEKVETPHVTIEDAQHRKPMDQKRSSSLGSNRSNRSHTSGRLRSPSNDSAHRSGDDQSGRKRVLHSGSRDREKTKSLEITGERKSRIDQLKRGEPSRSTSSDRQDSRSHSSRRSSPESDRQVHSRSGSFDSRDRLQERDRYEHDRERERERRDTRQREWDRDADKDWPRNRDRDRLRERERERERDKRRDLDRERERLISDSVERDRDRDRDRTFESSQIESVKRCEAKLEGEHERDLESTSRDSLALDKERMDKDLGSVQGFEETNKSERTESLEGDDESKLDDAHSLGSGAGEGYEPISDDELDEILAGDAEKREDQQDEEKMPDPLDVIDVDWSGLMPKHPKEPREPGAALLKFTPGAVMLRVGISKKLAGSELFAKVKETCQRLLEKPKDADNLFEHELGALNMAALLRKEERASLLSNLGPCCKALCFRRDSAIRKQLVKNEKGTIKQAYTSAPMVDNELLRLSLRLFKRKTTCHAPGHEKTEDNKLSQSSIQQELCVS

B1: FIP1 (protein, UniProt Q6UN15 1-594)
chain: MSAGEVERLVSELSGGTGGDEEEEWLYGGPWDVHVHSDLAKDLDENEVERPEEENASANPPSGIEDETAENGVPKPKVTETEDDSDSDSDDDEDDVHVTIGDIKTGAPQYGSYGTAPVNLNIKTGGRVYGTTGTKVKGVDLDAPGSINGVPLLEVDLDSFEDKPWRKPGADLSDYFNYGFNEDTWKAYCEKQKRIRMGLEVIPVTSTTNKITAEDCTMEVTPGAEIQDGRFNLFKVQQGRTGNSEKETALPSTKAEFTSPPSLFKTGLPPSRNSTSSQSQTSTASRKANSSVGKWQDRYGRAESPDLRRLPGAIDVIGQTITISRVEGRRRANENSNIQVLSERSATEVDNNFSKPPPFFPPGAPPTHLPPPPFLPPPPTVSTAPPLIPPPGFPPPPGAPPPSLIPTIESGHSSGYDSRSARAFPYGNVAFPHLPGSAPSWPSLVDTSKQWDYYARREKDRDRERDRDRERDRDRDRERERTRERERERDHSPTPSVFNSDEERYRYREYAERGYERHRASREKEERHRERRHREKEETRHKSSRSNSRRRHESEEGDSHRRHKHKKSKRSKEGKEAGSEPAPEQESTEATPAE
B2: symplekin (protein, UniProt Q92797 1-1274)
chain: MASGSGDSVTRRSVASQFFTQEEGPGIDGMTTSERVVDLLNQAALITNDSKITVLKQVQELIINKDPTLLDNFLDEIIAFQADKSIEVRKFVIGFIEEACKRDIELLLKLIANLNMLLRDENVNVVKKAILTMTQLYKVALQWMVKSRVISELQEACWDMVSAMAGDIILLLDSDNDGIRTHAIKFVEGLIVTLSPRMADSEIPRRQEHDISLDRIPRDHPYIQYNVLWEEGKAALEQLLKFMVHPAISSINLTTALGSLANIARQRPMFMSEVIQAYETLHANLPPTLAKSQVSSVRKNLKLHLLSVLKHPASLEFQAQITTLLVDLGTPQAEIARNMPSSKDTRKRPRDDSDSTLKKMKLEPNLGEDDEDKDLEPGPSGTSKASAQISGQSDTDITAEFLQPLLTPDNVANLVLISMVYLPEAMPASFQAIYTPVESAGTEAQIKHLARLMATQMTAAGLGPGVEQTKQCKEEPKEEKVVKTESVLIKRRLSAQGQAISVVGSLSSMSPLEEEAPQAKRRPEPIIPVTQPRLAGAGGRKKIFRLSDVLKPLTDAQVEAMKLGAVKRILRAEKAVACSGAAQVRIKILASLVTQFNSGLKAEVLSFILEDVRARLDLAFAWLYQEYNAYLAAGASGSLDKYEDCLIRLLSGLQEKPDQKDGIFTKVVLEAPLITESALEVVRKYCEDESRTYLGMSTLRDLIFKRPSRQFQYLHVLLDLSSHEKDKVRSQALLFIKRMYEKEQLREYVEKFALNYLQLLVHPNPPSVLFGADKDTEVAAPWTEETVKQCLYLYLALLPQNHKLIHELAAVYTEAIADIKRTVLRVIEQPIRGMGMNSPELLLLVENCPKGAETLVTRCLHSLTDKVPPSPELVKRVRDLYHKRLPDVRFLIPVLNGLEKKEVIQALPKLIKLNPIVVKEVFNRLLGTQHGEGNSALSPLNPGELLIALHNIDSVKCDMKSIIKATNLCFAERNVYTSEVLAVVMQQLMEQSPLPMLLMRTVIQSLTMYPRLGGFVMNILSRLIMKQVWKYPKVWEGFIKCCQRTKPQSFQVILQLPPQQLGAVFDKCPELREPLLAHVRSFTPHQQAHIPNSIMTILEASGKQEPEAKEAPAGPLEEDDLEPLTLAPAPAPRPPQDLIGLRLAQEKALKRQLEEEQKLKPGGVGAPSSSSPSPSPSARPGPPPSEEAMDFREEGPECETPGIFISMDDDSGLTEAALLDSSLEGPLPKETAAGGLTLKEERSPQTLAPVGEDAMKTPSPAAEDAREPEAKGNS
B3: polymerase delta-interacting protein 3 (protein, UniProt Q9BY77 1-421)
chain: MADISLDELIRKRGAAAKGRLNARPGVGGVRSRVGIQQGLLSQSTRTATFQQRFDARQKIGLSDARLKLGVKDAREKLLQKDARFRIKGKVQDAREMLNSRKQQTTVPQKPRQVADAREKISLKRSSPAAFINPPIGTVTPALKLTKTIQVPQQKAMAPLHPHPAGMRINVVNNHQAKQNLYDLDEDDDGIASVPTKQMKFAASGGFLHHMAGLSSSKLSMSKALPLTKVVQNDAYTAPALPSSIRTKALTNMSRTLVNKEEPPKELPAAEPVLSPLEGTKMTVNNLHPRVTEEDIVELFCVCGALKRARLVHPGVAEVVFVKKDDAITAYKKYNNRCLDGQPMKCNLHMNGNVITSDQPILLRLSDSPSMKKESELPRRVNSASSSNPPAEVDPDTILKALFKSSGASVTTQPTEFKIKL
B4: THRAP3 (protein, UniProt Q9Y2W1 1-955)
chain: MSKTNKSKSGSRSSRSRSASRSRSRSFSKSRSRSRSLSRSRKRRLSSRSRSRSYSPAHNRERNHPRVYQNRDFRGHNRGYRRPYYFRGRNRGFYPWGQYNRGGYGNYRSNWQNYRQAYSPRRGRSRSRSPKRRSPSPRSRSHSRNSDKSSSDRSRRSSSSRSSSNHSRVESSKRKSAKEKKSSSKDSRPSQAAGDNQGDEAKEQTFSGGTSQDTKASESSKPWPDATYGTGSASRASAVSELSPRERSPALKSPLQSVVVRRRSPRPSPVPKPSPPLSSTSQMGSTLPSGAGYQSGTHQGQFDHGSGSLSPSKKSPVGKSPPSTGSTYGSSQKEESAASGGAAYTKRYLEEQKTENGKDKEQKQTNTDKEKIKEKGSFSDTGLGDGKMKSDSFAPKTDSEKPFRGSQSPKRYKLRDDFEKKMADFHKEEMDDQDKDKAKGRKESEFDDEPKFMSKVIGANKNQEEEKSGKWEGLVYAPPGKEKQRKTEELEEESFPERSKKEDRGKRSEGGHRGFVPEKNFRVTAYKAVQEKSSSPPPRKTSESRDKLGAKGDFPTGKSSFSITREAQVNVRMDSFDEDLARPSGLLAQERKLCRDLVHSNKKEQEFRSIFQHIQSAQSQRSPSELFAQHIVTIVHHVKEHHFGSSGMTLHERFTKYLKRGTEQEAAKNKKSPEIHRRIDISPSTFRKHGLAHDEMKSPREPGYKAEGKYKDDPVDLRLDIERRKKHKERDLKRGKSRESVDSRDSSHSRERSAEKTEKTHKGSKKQKKHRRARDRSRSSSSSSQSSHSYKAEEYTEETEEREESTTGFDKSRLGTKDFVGPSERGGGRARGTFQFRARGRGWGRGNYSGNNNNNSNNDFQKRNREEEWDPEYTPKSKKYYLHDDREGEGSDKWVSRGRGRGAFPRGRGRFMFRKSSTSPKWAHDKFSGEEGEIEDDESGTENREEKDNIQPTTE
B5: RBM15 (protein, UniProt Q96T37 1-977)
chain: MRTAGRDPVPRRSPRWRRAVPLCETSAGRRVTQLRGDDLRRPATMKGKERSPVKAKRSRGGEDSTSRGERSKKLGGSGGSNGSSSGKTDSGGGSRRSLHLDKSSSRGGSREYDTGGGSSSSRLHSYSSPSTKNSSGGGESRSSSRGGGGESRSSGAASSAPGGGDGAEYKTLKISELGSQLSDEAVEDGLFHEFKRFGDVSVKISHLSGSGSGDERVAFVNFRRPEDARAAKHARGRLVLYDRPLKIEAVYVSRRRSRSPLDKDTYPPSASVVGASVGGHRHPPGGGGGQRSLSPGGAALGYRDYRLQQLALGRLPPPPPPPLPRDLERERDYPFYERVRPAYSLEPRVGAGAGAAPFREVDEISPEDDQRANRTLFLGNLDITVTESDLRRAFDRFGVITEVDIKRPSRGQTSTYGFLKFENLDMSHRAKLAMSGKIIIRNPIKIGYGKATPTTRLWVGGLGPWVPLAALAREFDRFGTIRTIDYRKGDSWAYIQYESLDAAHAAWTHMRGFPLGGPDRRLRVDFADTEHRYQQQYLQPLPLTHYELVTDAFGHRAPDPLRGARDRTPPLLYRDRDRDLYPDSDWVPPPPPVRERSTRTAATSVPAYEPLDSLDRRRDGWSLDRDRGDRDLPSSRDQPRKRRLPEESGGRHLDRSPESDRPRKRHCAPSPDRSPELSSSRDRYNSDNDRSSRLLLERPSPIRDRRGSLEKSQGDKRDRKNSASAERDRKHRTTAPTEGKSPLKKEDRSDGSAPSTSTASSKLKSPSQKQDGGTAPVASASPKLCLAWQGMLLLKNSNFPSNMHLLQGDLQVASSLLVEGSTGGKVAQLKITQRLRLDQPKLDEVTRRIKVAGPNGYAILLAVPGSSDSRSSSSSAASDTATSTQRPLRNLVSYLKQKQAAGVISLPVGGNKDKENTGVLHAFPPCEFSQQFLDSPAKALAKSEEDYLVMIIVRGFGFQIGVRYENKKRENLALTLL

The molecules below were run against T1, CBLL1 (human (endogenous in HUVEC)) (assay: affinity purification with mass spectrometry; endogenous CBLL1 immunopurified from HUVEC whole cell lysates (lysis buffer with 250 mM KCl, 0.1% NP-40, Benzonase) with anti-CBLL1 monoclonal antibodies cross-linked to Dynabeads Protein G, 4 h at 4 °C; washed with 0.5 M KCl-HEGN and 0.1 M KCl-HEGN; shotgun LC/MS/MS; negative control anti-gp64 antibody).

binding, binds:
BCLAF1 (from UniProt Q9NYF8 1-920)
DDX3X (from UniProt O00571 1-662)
FXR2 (from UniProt P51116 1-673)
Fragile X mental retardation syndrome-related protein 1 (from UniProt P51114 1-621)
METTL3 (from UniProt Q86U44 1-580)
VIRMA (from UniProt Q69YN4 1-1812)
ZC3H13 (from UniProt Q5T200 1-1668)
B1
B2
B3
B4
B5

Reference: publication PMC8605363
